Experimental data from PubChem BioAssay AID2662 (National Center for Advancing Translational Sciences (NCATS), 2010).
The whole screen tested about 290,000 compounds, of which about 110 (0.038%) were called active. The inconclusive results got no clear call from the source; some entries with a clear call stand among them for comparison. The call rests on the fitted dose curve; in most records, active means well fitted inhibition curve with a large enough effect in the polarisation, with a control signal flat (not every such curve was filed as active); inconclusive means small, poorly fitted or top-dose-only effect, or effect the other way, or a change in a side signal; inactive means no such curve, though single readings can be large or run the other way; the % refers to the polarisation. A potency beside an inconclusive call is a rough fit, not a confirmed value. A note “side channel” means that the fit belongs to a control or component signal, not to the main read-out. Where a SMILES comes first, the peptide text is derived from it. The star is where a group is joined. Boc = CC(C)(C)OC(=O)*

Amino acid sequences for entries named in this document (tags omitted).
UniProt Q03164, whole entry, looked up: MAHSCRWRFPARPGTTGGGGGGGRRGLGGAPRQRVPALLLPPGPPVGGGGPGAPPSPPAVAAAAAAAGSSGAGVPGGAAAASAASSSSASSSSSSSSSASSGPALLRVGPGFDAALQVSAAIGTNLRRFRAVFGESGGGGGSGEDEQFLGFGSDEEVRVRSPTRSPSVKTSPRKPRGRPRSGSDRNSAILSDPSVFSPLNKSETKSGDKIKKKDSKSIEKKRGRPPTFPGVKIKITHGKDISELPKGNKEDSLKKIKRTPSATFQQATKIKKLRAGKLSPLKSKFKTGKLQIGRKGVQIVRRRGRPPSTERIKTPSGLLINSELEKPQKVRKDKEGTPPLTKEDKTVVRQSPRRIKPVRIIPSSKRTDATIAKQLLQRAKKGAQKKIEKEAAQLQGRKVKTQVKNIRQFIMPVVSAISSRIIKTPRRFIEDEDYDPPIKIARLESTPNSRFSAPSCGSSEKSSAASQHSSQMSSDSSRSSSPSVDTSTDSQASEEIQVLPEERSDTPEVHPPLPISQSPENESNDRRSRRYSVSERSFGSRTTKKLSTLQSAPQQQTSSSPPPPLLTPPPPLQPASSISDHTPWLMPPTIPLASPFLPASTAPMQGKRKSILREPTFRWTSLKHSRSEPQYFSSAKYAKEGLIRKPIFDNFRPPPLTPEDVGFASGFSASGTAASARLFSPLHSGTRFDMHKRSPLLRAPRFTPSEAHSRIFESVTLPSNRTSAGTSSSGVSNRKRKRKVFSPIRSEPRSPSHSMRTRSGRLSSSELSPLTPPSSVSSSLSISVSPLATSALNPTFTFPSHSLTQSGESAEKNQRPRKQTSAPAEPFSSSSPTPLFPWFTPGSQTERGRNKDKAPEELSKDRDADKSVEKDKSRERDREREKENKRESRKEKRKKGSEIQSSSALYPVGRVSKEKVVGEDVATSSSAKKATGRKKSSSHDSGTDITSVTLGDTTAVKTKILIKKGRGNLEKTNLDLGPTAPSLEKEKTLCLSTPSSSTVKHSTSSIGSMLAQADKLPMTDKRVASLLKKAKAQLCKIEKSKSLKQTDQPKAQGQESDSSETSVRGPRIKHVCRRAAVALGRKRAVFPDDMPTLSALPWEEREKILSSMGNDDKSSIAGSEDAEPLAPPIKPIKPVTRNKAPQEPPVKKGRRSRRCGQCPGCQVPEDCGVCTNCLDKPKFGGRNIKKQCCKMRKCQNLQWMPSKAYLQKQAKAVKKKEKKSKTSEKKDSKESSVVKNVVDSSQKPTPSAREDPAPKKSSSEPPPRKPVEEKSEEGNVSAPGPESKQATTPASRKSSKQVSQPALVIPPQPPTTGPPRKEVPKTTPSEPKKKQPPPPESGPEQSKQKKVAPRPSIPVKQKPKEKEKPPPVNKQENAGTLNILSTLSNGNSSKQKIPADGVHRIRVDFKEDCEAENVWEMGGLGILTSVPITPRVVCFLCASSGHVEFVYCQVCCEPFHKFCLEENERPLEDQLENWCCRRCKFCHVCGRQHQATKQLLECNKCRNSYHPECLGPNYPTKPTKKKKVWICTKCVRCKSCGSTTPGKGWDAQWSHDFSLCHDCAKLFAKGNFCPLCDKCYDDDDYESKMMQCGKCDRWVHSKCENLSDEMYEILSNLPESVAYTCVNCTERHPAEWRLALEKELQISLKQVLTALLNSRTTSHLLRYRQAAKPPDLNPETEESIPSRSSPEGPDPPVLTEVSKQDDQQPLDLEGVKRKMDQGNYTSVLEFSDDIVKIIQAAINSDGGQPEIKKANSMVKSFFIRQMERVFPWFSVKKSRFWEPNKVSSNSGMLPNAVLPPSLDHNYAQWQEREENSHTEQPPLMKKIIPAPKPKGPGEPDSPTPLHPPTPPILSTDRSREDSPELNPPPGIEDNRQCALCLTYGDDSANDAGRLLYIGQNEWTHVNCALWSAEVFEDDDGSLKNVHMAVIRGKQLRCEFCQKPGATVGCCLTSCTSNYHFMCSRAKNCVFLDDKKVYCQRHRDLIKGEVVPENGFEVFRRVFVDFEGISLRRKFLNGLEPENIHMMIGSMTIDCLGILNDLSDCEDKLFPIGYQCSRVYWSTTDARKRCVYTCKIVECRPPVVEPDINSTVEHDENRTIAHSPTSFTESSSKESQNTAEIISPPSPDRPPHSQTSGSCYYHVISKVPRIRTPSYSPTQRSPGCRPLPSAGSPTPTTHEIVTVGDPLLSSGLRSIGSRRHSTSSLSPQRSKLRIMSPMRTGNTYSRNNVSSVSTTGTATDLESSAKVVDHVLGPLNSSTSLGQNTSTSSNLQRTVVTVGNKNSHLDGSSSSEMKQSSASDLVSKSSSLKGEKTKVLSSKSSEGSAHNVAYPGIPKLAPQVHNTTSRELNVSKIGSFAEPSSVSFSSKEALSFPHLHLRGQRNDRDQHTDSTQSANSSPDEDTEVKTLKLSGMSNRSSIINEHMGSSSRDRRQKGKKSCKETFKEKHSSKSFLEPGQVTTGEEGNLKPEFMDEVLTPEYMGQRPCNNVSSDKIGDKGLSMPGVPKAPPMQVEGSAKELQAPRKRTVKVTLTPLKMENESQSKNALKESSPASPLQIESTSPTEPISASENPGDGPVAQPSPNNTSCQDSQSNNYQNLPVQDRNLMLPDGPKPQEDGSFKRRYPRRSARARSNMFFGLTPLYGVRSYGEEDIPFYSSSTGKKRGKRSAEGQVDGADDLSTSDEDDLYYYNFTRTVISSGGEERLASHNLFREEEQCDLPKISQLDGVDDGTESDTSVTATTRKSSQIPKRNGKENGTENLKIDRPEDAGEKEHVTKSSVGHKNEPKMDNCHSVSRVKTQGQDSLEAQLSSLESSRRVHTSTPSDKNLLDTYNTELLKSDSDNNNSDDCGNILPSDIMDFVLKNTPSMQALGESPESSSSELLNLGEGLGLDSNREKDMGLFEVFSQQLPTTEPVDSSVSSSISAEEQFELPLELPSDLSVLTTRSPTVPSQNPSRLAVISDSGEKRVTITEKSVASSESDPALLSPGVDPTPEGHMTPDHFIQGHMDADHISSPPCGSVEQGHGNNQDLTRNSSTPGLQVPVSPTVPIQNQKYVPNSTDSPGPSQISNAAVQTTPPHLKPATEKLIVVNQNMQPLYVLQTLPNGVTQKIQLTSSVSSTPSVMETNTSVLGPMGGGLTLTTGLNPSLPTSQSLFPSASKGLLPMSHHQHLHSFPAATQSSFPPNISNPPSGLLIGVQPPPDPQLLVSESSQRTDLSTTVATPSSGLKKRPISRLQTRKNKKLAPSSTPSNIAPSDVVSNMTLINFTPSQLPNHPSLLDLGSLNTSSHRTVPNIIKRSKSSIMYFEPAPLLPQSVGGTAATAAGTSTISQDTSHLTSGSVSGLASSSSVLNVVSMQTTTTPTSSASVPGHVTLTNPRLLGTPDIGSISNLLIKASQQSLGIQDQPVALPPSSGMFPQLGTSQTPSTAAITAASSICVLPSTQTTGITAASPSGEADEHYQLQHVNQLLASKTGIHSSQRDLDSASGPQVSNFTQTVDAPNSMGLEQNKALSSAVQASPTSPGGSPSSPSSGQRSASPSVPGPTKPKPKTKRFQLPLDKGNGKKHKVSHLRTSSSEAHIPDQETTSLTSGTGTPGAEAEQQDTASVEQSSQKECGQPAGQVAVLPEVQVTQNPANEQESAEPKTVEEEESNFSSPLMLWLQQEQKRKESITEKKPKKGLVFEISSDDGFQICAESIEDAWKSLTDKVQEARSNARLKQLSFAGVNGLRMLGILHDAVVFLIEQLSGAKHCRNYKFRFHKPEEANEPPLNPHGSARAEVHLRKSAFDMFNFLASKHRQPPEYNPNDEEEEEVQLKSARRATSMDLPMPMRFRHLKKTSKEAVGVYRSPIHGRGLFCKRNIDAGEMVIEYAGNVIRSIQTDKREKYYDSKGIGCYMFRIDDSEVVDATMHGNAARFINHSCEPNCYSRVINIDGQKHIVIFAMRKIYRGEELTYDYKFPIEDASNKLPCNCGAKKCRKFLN

These compounds were tested against Histone-lysine N-methyltransferase 2A (Homo sapiens) (UniProt Q03164) (assay: qHTS Fluorescence Polarization Assay for Inhibitors of MLL CXXC domain - DNA interaction). Settings: MLL-CXXC / FITC-HOXA9 DNA fluorescence polarization; series mostly up to 115 µM.
How it was run: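 Fluorescence polarization: 7 uM MLL-CXXC (stock) preincubated 5 min with compounds, then 50 nM fluorescein-HOX-A9 DNA (stock) added; 30 min ambient. Buffer 50 mM Tris-HCl pH 7.5, 50 mM NaCl, 1 mM DTT, 0.05% BSA.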
Potency means the concentration at half of the fitted maximal effect.

Row | SMILES | Potency
1 | CC(=O)C1=C(O)C(=O)N(c2ccc(Br)cn2)C1c1cccc([N+](=O)[O-])c1 (stereo not drawn) | inconclusive: 50.1 µM [fluorescent, side channel, single point]
2 | C[N+](C)(C)C/C=C1/COCO1 | inactive
3 | CN(C)C=Nc1ccc2nc3c(cc2c1)[nH]c1ccccc13 | inconclusive: 39.8 µM [quencher, side channel, single point]
4 | O=C(Oc1c(Cl)cc(Cl)c2cccnc12)c1cccc([N+](=O)[O-])c1 | inactive
5 | CCCOc1ccc(C(C(=O)OCCN(CC)CC)c2ccccc2)cc1 (stereo not drawn) | inconclusive: 70.8 µM [quencher, side channel, single point]
6 | O=C(C[n+]1ccc(CCSc2ccc(F)cc2)cc1)c1ccccc1 | inactive
7 | CN(c1ccc(C(=O)Nc2cccnc2)cc1)S(=O)(=O)c1ccccc1 | inactive
8 | Cc1ccccc1C(=O)N=c1ccn(-c2nc3ccccc3nc2NS(=O)(=O)c2ccccc2)cc1 | inconclusive: 44.7 µM [fluorescent, side channel, single point]
9 | Cn1cnnc1SCC(=O)NC1CCCN(Cc2ccc(Cl)cc2)C1 (stereo not drawn) | inconclusive: 31.6 µM [fluorescent, side channel, partial curve]
10 | CCCOc1ccc(Cl)cc1/C=C1/C(=O)ON=C1C | inconclusive: 1.58 µM [fluorescent, side channel, full curve]
11 | Cc1cccc(C)c1OCc1cc(C(=O)NC2CCC2)no1 | inactive
12 | CN1CCN(CC(=O)Nc2nnc(-c3cccs3)s2)CC1 | inactive
13 | Brc1ccccc1OCCCCn1cnc2ccccc21 | inconclusive: 31.6 µM [quencher, side channel, single point]
14 | O=S(=O)(CCc1nc2ccccc2[nH]1)c1ccc(Cl)cc1 | inconclusive: 70.8 µM [fluorescent, side channel, single point]
15 | Fc1ccc(NC(=S)N2CCc3ccccc3C2)c(F)c1 | inconclusive: 11.2 µM [inhibitor, single point]
16 | O=C(CCCCl)Oc1ccc2cc(-c3ccc4ccccc4n3)c(=O)oc2c1 | inconclusive: 5.62 µM [fluorescent, side channel, full curve]
17 | CCOc1cc2c(cc1/C=C/c1noc(C)c1[N+](=O)[O-])OC(C)C2 (stereo not drawn) | inconclusive: 20 µM [fluorescent, side channel, partial curve]
18 | CN(C)c1ccc(/C=C2\SC(N3CCCCC3)=NC2=O)cc1 | inconclusive: 31.6 µM [fluorescent, side channel, partial curve]
19 | CSc1ccccc1NC(=O)c1cccc(S(=O)(=O)N2CCN(C)CC2)c1 | inactive
20 | O=C1CCCC2=C1Sc1ccc(Cl)cc1N2 | inconclusive: 70.8 µM [fluorescent, side channel, single point]
21 | CCOc1ccc(C2C(C#N)=C(N)SC(N)=C2C#N)cc1OC | inconclusive: 44.7 µM [fluorescent, side channel, partial curve]

Copied from above: entries 6 to 19
Row | SMILES | Potency
6 | O=C(C[n+]1ccc(CCSc2ccc(F)cc2)cc1)c1ccccc1 | inactive
7 | CN(c1ccc(C(=O)Nc2cccnc2)cc1)S(=O)(=O)c1ccccc1 | inactive
8 | Cc1ccccc1C(=O)N=c1ccn(-c2nc3ccccc3nc2NS(=O)(=O)c2ccccc2)cc1 | inconclusive: 44.7 µM [fluorescent, side channel, single point]
9 | Cn1cnnc1SCC(=O)NC1CCCN(Cc2ccc(Cl)cc2)C1 (stereo not drawn) | inconclusive: 31.6 µM [fluorescent, side channel, partial curve]
10 | CCCOc1ccc(Cl)cc1/C=C1/C(=O)ON=C1C | inconclusive: 1.58 µM [fluorescent, side channel, full curve]
11 | Cc1cccc(C)c1OCc1cc(C(=O)NC2CCC2)no1 | inactive
12 | CN1CCN(CC(=O)Nc2nnc(-c3cccs3)s2)CC1 | inactive
13 | Brc1ccccc1OCCCCn1cnc2ccccc21 | inconclusive: 31.6 µM [quencher, side channel, single point]
14 | O=S(=O)(CCc1nc2ccccc2[nH]1)c1ccc(Cl)cc1 | inconclusive: 70.8 µM [fluorescent, side channel, single point]
15 | Fc1ccc(NC(=S)N2CCc3ccccc3C2)c(F)c1 | inconclusive: 11.2 µM [inhibitor, single point]
16 | O=C(CCCCl)Oc1ccc2cc(-c3ccc4ccccc4n3)c(=O)oc2c1 | inconclusive: 5.62 µM [fluorescent, side channel, full curve]
17 | CCOc1cc2c(cc1/C=C/c1noc(C)c1[N+](=O)[O-])OC(C)C2 (stereo not drawn) | inconclusive: 20 µM [fluorescent, side channel, partial curve]
18 | CN(C)c1ccc(/C=C2\SC(N3CCCCC3)=NC2=O)cc1 | inconclusive: 31.6 µM [fluorescent, side channel, partial curve]
19 | CSc1ccccc1NC(=O)c1cccc(S(=O)(=O)N2CCN(C)CC2)c1 | inactive

(listing goes on)

Row | SMILES | Potency
22 | NC(=O)C1CCN(C(=O)CCC(=O)c2ccc(F)cc2)CC1 | inconclusive: 14.1 µM [inhibitor, single point]
23 | Oc1ccccc1-c1nc(NCc2ccccc2)c2ccccc2n1 | inconclusive: 63.1 µM [inhibitor, single point]
24 | Cc1ccc(OCC(=O)N(C)CC(=O)Nc2cccc(F)c2)cc1 | inconclusive: 15.8 µM [fluorescent, side channel, single point]
25 | COCc1nnc(NC(=O)c2cccc(NC(=O)c3ccccc3)c2)s1 | inconclusive: 8.91 µM [fluorescent, side channel, single point]
26 | CN(CC1CCOCC1)C(=O)CC1C(=O)NCCN1Cc1ccccc1F (stereo not drawn) | inconclusive: 44.7 µM [inhibitor, single point]
27 | NC(=O)CC(NC(=O)Cc1ccc(Br)cc1)c1ccc(NC2CCCCCC2)c([N+](=O)[O-])c1 (stereo not drawn) | inconclusive: 31.6 µM [inhibitor, single point]
28 | O=C(Nc1ccc2ccccc2c1)c1cccc([N+](=O)[O-])c1 | inconclusive: 25.1 µM [fluorescent, side channel, single point]
29 | CCOC(=O)N1CCN(C(=O)C2CCN(S(=O)(=O)c3cc(Cl)ccc3OCC)CC2)CC1 | inconclusive: 15.8 µM [quencher, side channel, single point]
30 | Cc1ccc(N2C=Nc3ccc(C)c4nc(C)cc2c34)cc1 | inactive
31 | Cc1cc2cc(CNC(=O)c3cccc([N+](=O)[O-])c3)ccc2n1C | inactive
32 | CC(C)[C@H](NC(=O)OC(C)(C)C)C(=O)NCC1CCC(C(=O)N[C@@H](Cc2ccccc2)C(=O)O)CC1 (stereo partly drawn) | inconclusive: 28.2 µM [fluorescent, side channel, partial curve]
33 | CCOc1ccc2nc(Cl)sc2c1 | inconclusive: 70.8 µM [fluorescent, side channel, single point]
34 | Cc1cccn2c(=O)c3cc(C(=O)NCCCn4ccnc4)n(C)c3nc12 | inconclusive: 39.8 µM [quencher, side channel, single point]
35 | Cc1nnsc1C(=O)NNS(=O)(=O)c1ccccc1 | inactive
36 | CC1=Nc2ccccc2/C1=C\c1nc(-c2ccc(F)cc2)oc1O | inconclusive: 63.1 µM [fluorescent, side channel, single point]
37 | O=C(Nc1nc(-c2ccccn2)cs1)c1ncc(Cl)c(Cl)c1Cl | inconclusive: 17.8 µM [inhibitor, partial curve]
38 | CC(=O)NCCc1nc2cc(NC(=O)c3ccc([N+](=O)[O-])cc3)ccc2n1C | inconclusive: 14.1 µM [fluorescent, side channel, single point]
39 | Cc1cc(NC2CCCCC2)nc(-c2ccccc2O)n1 | inconclusive: 14.1 µM [fluorescent, side channel, single point]
40 | COc1ccc(N(Cc2cc3cccc(C)c3[nH]c2=O)S(C)(=O)=O)cc1 | inactive
41 | COc1ccc(CNC(=O)Cn2c(=O)oc3ccccc32)cc1OC | inconclusive: 22.4 µM [fluorescent, side channel, partial curve]
42 | Cc1cccc(Nc2nc(-c3ccccn3)cs2)n1 | inconclusive: 31.6 µM [quencher, side channel, partial curve]

Row | SMILES | Potency
43 | O=C(CSc1nncn1-c1ccccc1)Nc1cccc(S(=O)(=O)N2CCCCC2)c1 | inconclusive: 1.41 µM [fluorescent, side channel, full curve]
44 | N#CC(C#N)=C1C=C2C=C(N3CCCCCC3)CCC2CC1 (stereo not drawn) | inconclusive: 35.5 µM [fluorescent, side channel, partial curve, poor fit]
45 | CC(C)c1cc[n+](-c2nc([O-])sc2C=O)cc1 | inconclusive: 70.8 µM [inhibitor, single point]
46 | COc1ccc(C)cc1N(C(=O)Cn1nnc(-c2ccc(C)o2)n1)C(C(=O)NC1CCCC1)c1ccncc1 (stereo not drawn) | inactive
47 | COc1ccc(/C=C2\SC(c3ccc(C)cc3)=NC2=O)cc1OC | inconclusive: 70.8 µM [fluorescent, side channel, partial curve]
48 | COc1ccc(-c2coc3c(CN4CCCCC4)c(O)c(CN4CCCCC4)c(O)c3c2=O)cc1 | inconclusive: 22.4 µM [quencher, side channel, partial curve]
49 | FC(F)(F)c1nnc2sc(-c3cccs3)nn12 | inactive
50 | COc1ccc(C(=O)Nc2ccc3ncccc3c2)cc1 | inactive
51 | COCCCNC(=S)N/N=C/c1ccc(OC)cc1 | inactive
52 | Cc1ccccc1N=Nc1c(O)n(C)c2ccccc12 | inconclusive: 70.8 µM [inhibitor, single point]
53 | Cc1ccc(C)c(N2CCN(C(=S)Nc3ccc4nc(N5CCN(C)CC5)cc(C)c4c3)CC2)c1 | inconclusive: 56.2 µM [quencher, side channel, partial curve, poor fit]
54 | C=CCn1c(Sc2nnc(C)s2)nc2c1c(=O)[nH]c(=O)n2C | inactive
55 | O=C(CN1CCOc2ccccc21)N1CCCC1 | inconclusive: 14.1 µM [fluorescent, single point]
56 | CCC(C)[C@H](NC(=O)NCCC1=CCCCC1)C(=O)O (stereo partly drawn) | inconclusive: 100 µM [inhibitor, partial curve]
57 | COC(=O)CC1C(=O)NCCN1C(=O)CSc1nnnn1-c1ccc(Cl)cc1 (stereo not drawn) | inconclusive: 22.4 µM [fluorescent, side channel, full curve]
58 | CN1CCN(c2ccc(NC(=O)c3cccc(OCc4ccccc4)c3)cc2)CC1 | inconclusive: 50.1 µM [quencher, side channel, partial curve]
59 | Cc1nn(Cc2ccccc2)c(Cl)c1C(=O)NCCc1ccccc1 | inconclusive: 14.1 µM [quencher, single point]
60 | CC(C)(C)OC(=O)NC(Cc1ccccc1)C(=O)N1CCCC1C(=O)O (stereo not drawn) (Boc-Phe-Pro-OH; configuration not given here) | inconclusive: 63.1 µM [fluorescent, side channel, single point]
61 | CC(=O)c1ccc(NC(=O)c2ccc(S(=O)(=O)c3ccccc3)cc2)cc1 | inconclusive: 1.41 µM [quencher, side channel, full curve, poor fit]
62 | CC(=O)c1ccc(OCC(O)CN2CCN(S(=O)(=O)c3cccc(Br)c3)CC2)cc1 (stereo not drawn) | inactive
63 | CCC(/C=C1\Sc2ccc(OC)cc2N1CC)=C\c1sc2ccc(OC)cc2[n+]1CCCS(=O)(=O)[O-] | inconclusive: 3.55 µM [quencher, side channel, full curve]
